This is one part of the list. Further columns of the screen follow, without active or inactive calls. Most of these compounds were active or inconclusive in the main read-out, so they are no random draw. Words in brackets tell the shape of the fitted curve; partial curves, single points and poor fits give uncertain potencies.

The text below walks through data of PubChem BioAssay AID2685 (National Center for Advancing Translational Sciences (NCATS), 2010).

The test in a line: qHTS Assay for Lipid Storage Modulators in Drosophila S3 Cells.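 For cell number change: cells counted by Cell Tracker Red CMTPX staining in the red channel.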 Particulars: BODIPY lipid droplet fluorescence, 18-24 h; for cell number change: measured here: cell count max response, cells fed with added oleic acid. In short, it runs like this: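 Laser-scanning cytometry quantifies lipid droplet accumulation (500–530 nm total intensity; droplet/cell object ratio) in oleic acid-fed (400 uM added) Drosophila S3 cells treated with a concentration series. 20 uM Triacsin C defined 100% inhibition.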
On the technique in general: In qHTS, concentration-response curves come from the screen itself.

Where [1] appears, read: measured here: lipid fluorescence (Fed channel) AC50, cells fed with added oleic acid.
The mark [2] stands for this setting: measured here: cell number channel AC50, cells fed with added oleic acid.

One may read the AC50 as the concentration at which the activity in the assay is half-maximal. Low values mean greater potency, high ones weaker potency. Regarding `COc1ccccc1NC(=O)CCSc1nc(C)cs1`, the cell number change was -0.552%. Moreover, under setting [1], the AC50 was 0.103 µM [rising, full curve, poor fit].

`Cc1ccc(CC2S/C(=N/N=C/c3ccco3)NC2=O)cc1` (configuration not stated): the cell number change is -102%. Besides, the concentration at half-maximal activity (AC50) under setting [2] was 29.1 µM [falling, partial curve, poor fit]. The AC50 under setting [1] was 29.1 µM [falling, single point].

Consider `CCOC(=O)/C(C#N)=C/c1cc2ccccc2nc1N1CCOCC1`, for which the cell number change was -2.73%. Besides, the AC50 under setting [1] is 1.16 µM [falling, full curve, poor fit].

Turning to `COc1ccc(C)cc1NC(=O)C1CCN(S(=O)(=O)c2ccccc2)CC1`, the cell number change is -22.9%. Further, the half-maximal activity concentration (AC50) under setting [1] is 3.26 µM [falling, full curve].

Consider `CCNC(=S)Nc1ccc(OCc2nc3ccccc3s2)cc1`, for which the cell number change was -9.12%. For the same compound, the concentration at half-maximal activity (AC50) under setting [1] was 29.1 µM [falling, single point].

On to `Cc1ccc(Cn2c(=N)c(S(=O)(=O)c3ccc(C)cc3)cc3c(=O)n4ccccc4nc32)cc1`, for which the cell number change was -3.4%. For the same compound, under setting [2], the half-maximal activity concentration (AC50) was 0.82 µM [falling, partial curve].

With `S=C(NCCN1CCOCC1)Nc1ccc(-c2nc3ccccc3[nH]2)cc1`, the cell number change stood at 62.2%. Under setting [2], the AC50 is 16.4 µM [rising, single point].

In the case of `Cn1c(N)c(C(=O)CSc2nc(C3CC3)n(-c3ccccc3)n2)c(=O)n(C)c1=O`, the cell number change was -9.34%. The AC50 under setting [1] is 4.11 µM [falling, partial curve, poor fit].

As to `O=c1c2cc(Br)ccc2[nH]c(=S)n1Cc1ccccn1`, the cell number change was found to be 10.9%. Besides, the half-maximal activity concentration (AC50) under setting [1] was 0.164 µM [falling, partial curve, poor fit].

Regarding `CN(C)C(=O)Oc1ccc[n+](C)c1`, the cell number change turned out to be 3.52%. Also, the concentration at half-maximal activity (AC50) under setting [1] is 1.64 µM [falling, partial curve].

Take `NC(=O)c1ccsc1NC(=O)COC(=O)c1ccncc1`: the cell number change is -17.5%. For the same compound, the AC50 under setting [2] was 0.461 µM [falling, partial curve, poor fit].

`O=C(O)c1ccc(NC(=S)NC(=O)c2ccc3ccccc3c2)cc1`: the cell number change came to 8.19%. In addition, the concentration at half-maximal activity (AC50) under setting [1] is 0.00461 µM [rising, full curve, poor fit].

For `O=S(=O)(NCC(c1ccc2c(c1)OCO2)N1CCOCC1)c1ccccc1` (configuration not stated), the cell number change amounted to 112%. For the same compound, the AC50 under setting [2] is 29.1 µM [rising, single point]. Besides, under setting [1], the concentration at half-maximal activity (AC50) is 8.2 µM [rising, partial curve, poor fit].

In the case of `CCCn1c(N)c(N(CCOC)C(=O)CSCC(=O)Nc2ccc(OC)cc2)c(=O)[nH]c1=O`, the cell number change was 2.94%. The concentration at half-maximal activity (AC50) under setting [2] is 6.51 µM [falling, single point]. In addition, the concentration at half-maximal activity (AC50) under setting [1] was 6.51 µM [falling, single point].

Regarding `COc1c(N)c2ccccc2[nH]c1=O`, the AC50 under setting [1] was 4.11 µM [falling, partial curve, poor fit].

Regarding `O=C(CN1C(=O)CCS(=O)(=O)c2ccccc21)NCCc1ccccc1`, the cell number change is 11%. Besides, the AC50 under setting [1] is 0.651 µM [rising, single point].

With `O=C(CCc1ccccc1)Nc1cc2c(cc1Cl)OCCO2`, the cell number change is -3.17%. The AC50 under setting [1] is 8.2 µM [rising, partial curve].

For the compound `CCOc1ccc(C(C(=O)Nc2ccc(F)cc2)N(C(=O)Cn2nnc3ccccc32)C2CC2)cc1` (configuration not stated), the cell number change worked out at 6.32%. Also, under setting [1], the concentration at half-maximal activity (AC50) was 0.00517 µM [rising, full curve, poor fit].

In the case of `CCn1c2ccccc2c2cc(NC(=O)Cc3ccc(S(=O)(=O)N4CCOCC4)s3)ccc21`, the cell number change is -41.4%. The AC50 under setting [2] was 29.1 µM [falling, single point]. Besides, the AC50 under setting [1] was 29.1 µM [falling, single point].

As to `CC(C)N(Cc1nccn1C)C(=O)c1cc(COc2ccc3ncccc3c2)on1`, the cell number change is -19.7%. Moreover, the AC50 under setting [1] was 16.4 µM [falling, single point].

As to `CCN(CC)c1ccc2ccc(=O)oc2c1`, the cell number change amounted to 1.45%. Also, the concentration at half-maximal activity (AC50) under setting [1] was 4.11 µM [rising, partial curve, poor fit].

`CC1(C)Cc2c(sc3c2C2=NCCN2C=N3)CO1`: the cell number change came to 7.51%.

With `CCN(Cc1nc2ccccc2c(=O)[nH]1)C(=O)COc1ccccc1-c1ccccc1`, the cell number change was 30%. The AC50 under setting [1] was 23.1 µM [rising, partial curve, poor fit].

Take `O=S(=O)(NCc1ccc(F)cc1)c1ccc(Br)cc1Br`: the cell number change was -46.9%. Under setting [2], the AC50 is 14.6 µM [falling, partial curve, poor fit]. The concentration at half-maximal activity (AC50) under setting [1] was 0.184 µM [rising, full curve, poor fit].

As for `c1ccc(Oc2cccc(CN3CCCCC3)c2)cc1`, the cell number change is -15.6%. Further, the AC50 under setting [1] was 0.461 µM [falling, full curve].

For `O=C(CN1C(=O)CCC1=O)Nc1ccc(Cc2ccc(NC(=O)CN3C(=O)CCC3=O)cc2)cc1`, the cell number change was found to be 6.18%. Besides, the AC50 under setting [2] is 6.51 µM [rising, single point].

In the case of `O=C(Nc1ccc(Cl)cn1)c1ccccc1SCc1ccccc1`, the cell number change is -26.1%. Under setting [1], the AC50 is 29.1 µM [falling, single point].

For the compound `O=C(CCc1nnc(CCCc2ccccc2)o1)N1CCCCCC1`, under setting [1], the half-maximal activity concentration (AC50) was 29.1 µM [falling, single point].

Regarding `CN1CCN(CCCNC(=O)c2cc3c(=O)n(C)c4ccccc4c3s2)CC1`, the cell number change was -6.73%. Besides, under setting [1], the concentration at half-maximal activity (AC50) is 0.411 µM [rising, full curve, poor fit].

On to `O=C(Nc1cccc(NC(=O)c2ccccc2F)c1)c1ccccc1`, for which the cell number change was 33.8%. Under setting [2], the concentration at half-maximal activity (AC50) is 29.1 µM [rising, single point].

Regarding `Cc1cccc(-n2ccnc2CN2CCC(CO)(Cc3ccccc3)CC2)c1`, the cell number change stood at 16.3%. The AC50 under setting [1] is 29.1 µM [rising, single point].

Turning to `Cn1c(=O)c(=O)n(C)c2cc(S(=O)(=O)N3CCN(c4ccc(F)cc4)CC3)ccc21`, the cell number change was 42.1%. For the same compound, under setting [2], the half-maximal activity concentration (AC50) was 23.1 µM [rising, single point]. Besides, the AC50 under setting [1] was 16.4 µM [rising, single point].

For `Cc1ccc(S(=O)(=O)N2CCOCC2)cc1NC(=O)CSc1nnc2cc(C)c3ccccc3n12`, the cell number change is -19.5%. The concentration at half-maximal activity (AC50) under setting [2] is 0.092 µM [rising, full curve, poor fit].

Turning to `CNS(=O)(=O)c1cccc(C(=O)OCC(=O)Nc2ccc(Cl)cc2F)c1`, the cell number change was -8.96%. In addition, the AC50 under setting [1] is 0.58 µM [falling, single point].

On to `CCCOc1ccc(/C=C/C(=O)O)cc1OC`, for which the cell number change is -11%. Also, the concentration at half-maximal activity (AC50) under setting [2] was 0.82 µM [falling, full curve, poor fit].

On to `COC(=O)N/N=C/c1ccc(-c2cc(Cl)cc(Cl)c2)o1`, for which the cell number change is -22%. The AC50 under setting [1] is 29.1 µM [rising, single point].

In the case of `O=C(N1CCOCC1)N1CCN(c2nc(-c3ccc(F)cc3)cs2)CC1`, the cell number change is 1.36%. In addition, the AC50 under setting [1] was 20.6 µM [rising, single point].

For `CCc1nnc(NC(=O)c2ccc(S(=O)(=O)N(CC(C)C)CC(C)C)cc2)o1`, the cell number change was -39.5%. For the same compound, the half-maximal activity concentration (AC50) under setting [2] is 16.4 µM [falling, partial curve]. For the same compound, the AC50 under setting [1] is 16.4 µM [falling, partial curve].

For `Cc1ccc(CN(C)CC(=O)Nc2ccccc2C(=O)NC2CC2)o1`, the cell number change was 1.07%. Moreover, the AC50 under setting [1] was 25.9 µM [rising, single point].

For `CC(C)OCc1ccc(C(=O)N2CCN(S(=O)(=O)c3ccc(Br)s3)CC2)cc1`, the cell number change was -15.6%. Further, under setting [1], the AC50 was 29.1 µM [falling, single point].

Turning to `CCOC(=O)N1CCC(NC(=O)c2cc3c(-c4ccc(OC)c(OC)c4)nn(C)c3s2)CC1`, the cell number change is -17.6%. In addition, the concentration at half-maximal activity (AC50) under setting [2] is 3.26 µM [falling, single point].

`CCOC(=O)N1CCN(c2nc3ccccn3c(=O)c2C=O)CC1`: the cell number change was -11.1%. Moreover, the concentration at half-maximal activity (AC50) under setting [1] was 29.1 µM [rising, single point].

Turning to `Cc1cc(C)nc(N=Nc2c(O)n(Cc3ccc(Cl)cc3)c3ccccc23)n1`, the cell number change is -79.8%. In addition, the half-maximal activity concentration (AC50) under setting [2] was 20.6 µM [falling, partial curve]. The concentration at half-maximal activity (AC50) under setting [1] was 5.8 µM [falling, full curve].

Take `Cc1noc(C)c1C(=O)Nc1cccc(S(=O)(=O)N2CCCCC2)c1`: the cell number change was -0.129%. Also, under setting [1], the AC50 is 13 µM [falling, partial curve, poor fit].

As to `O=C(C1CCC1)N1CCCc2cc(S(=O)(=O)N3CCN(c4ccccc4)CC3)ccc21`, the concentration at half-maximal activity (AC50) under setting [1] was 2.31 µM [falling, partial curve].

In the case of `CCOCCCNC(=O)/C(C#N)=C/c1ccccc1F`, the cell number change is -32.3%. Under setting [2], the AC50 is 29.1 µM [falling, single point]. Further, the half-maximal activity concentration (AC50) under setting [1] is 20.6 µM [falling, single point].

As to `CCN(CC)c1ccc2cc(C=O)c(=O)oc2c1`, the cell number change was 158%. Besides, the AC50 under setting [2] was 23.1 µM [rising, single point]. Besides, under setting [1], the half-maximal activity concentration (AC50) is 0.651 µM [rising, full curve].

As to `Cn1c(=O)oc2cc(S(=O)(=O)NC3CCCc4ccccc43)ccc21` (configuration not stated), under setting [1], the AC50 was 18.4 µM [rising, single point].

In the case of `CCn1cc(S(=O)(=O)Nc2cc(C(=O)OC)ccc2C)cn1`, the cell number change came out at 33.6%. Further, the AC50 under setting [2] is 14.6 µM [rising, partial curve, poor fit].

`COc1ccc(CNC(=S)NC2CCCCC2)cc1`: the AC50 under setting [1] is 29.1 µM [falling, single point].

Regarding `CC(=O)c1cccc(N(CC(=O)NC2CCCCC2)C(=O)c2csnn2)c1`, the cell number change is -18.1%. In addition, under setting [2], the AC50 is 0.731 µM [falling, full curve, poor fit].

For `O=C(CN1C(=O)S/C(=C\c2ccc(C(=O)O)cc2)C1=O)Nc1ccccc1`, the cell number change was 16.4%. Also, under setting [1], the concentration at half-maximal activity (AC50) was 25.9 µM [rising, partial curve, poor fit].

Turning to `C=CCn1c(CCNC(=O)c2cccs2)nnc1SCC(=O)Nc1cccc(Cl)c1C`, the cell number change is -19.3%. For the same compound, the concentration at half-maximal activity (AC50) under setting [1] is 20.6 µM [falling, single point].

As for `Cc1cc(C)n(C2=NS(=O)(=O)c3ccccc32)n1`, the cell number change was -25.1%. Also, the AC50 under setting [2] is 2.06 µM [falling, partial curve, poor fit]. In addition, the AC50 under setting [1] was 4.61 µM [falling, full curve].

As for `O=C(CSc1ncnc2scc(-c3ccc(Cl)cc3)c12)NCc1ccc2c(c1)OCO2`, the cell number change amounted to 1.98%. The AC50 under setting [1] was 2.59 µM [rising, partial curve].

Take `Cc1ccccc1NC(=O)c1ccc2nccnc2c1`: the cell number change is -13.3%. In addition, under setting [1], the half-maximal activity concentration (AC50) is 6.51 µM [falling, single point].
